The assay is described as follows: qHTS Assay to Find Inhibitors of Chronic Active B-Cell Receptor Signaling. The settings on record: ABC-DLBCL IkBa-CBG/CBR reporter, luminescence ratio (green luciferase fused to IkBa over red control in TMD8 lymphoma cells), 4 h. The method in brief:
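Concentration-response series (up to 46 uM) were applied to TMD8 dual-reporter cells for 4 h at 37C with doxycycline. Green/red ratio, after filter-overlap correction, defined %Activity; red signal alone was normalised to basal cells and zero luminescence.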

Where [1] appears, read: measured here: CBR red luminescence, cell number.
Where [2] appears, read: measured here: IkBa-CBG green luminescence.

The other results are listed elsewhere or left out. The main result of the screen is listed elsewhere. These columns were measured beside it and carry no call. The list favours compounds with an active or inconclusive main result. Words in brackets tell the shape of the fitted curve; partial curves, single points and poor fits give uncertain potencies.

In general, AC50 refers to the midpoint of the concentration-response curve, whichever way the signal moves. Turning to `O=C1CSC(c2ccccc2F)N1` (configuration not stated), the AC50 under setting [1] is 35.5 µM [falling, partial curve, poor fit].

With `CC(C)CCn1c(SCC#N)nc2c(sc3ccccc32)c1=O`, the concentration at half-maximal activity (AC50) under setting [1] is 0.651 µM [falling, partial curve, poor fit].

`O=C(Cc1ccccc1)Nc1cc2c(cc1Cl)OCCCO2`: the AC50 under setting [1] was 12.6 µM [rising, single point]. On the same count and under the same terms, the result for `Cc1ccc(CSC2=NCCN2S(=O)(=O)c2ccccc2)cc1` reads 35.5 µM [rising, single point]. As to `Nc1c(C(O)(C(F)(F)F)C(F)(F)F)ccc2ccccc12`, the AC50 under setting [1] was 0.562 µM [falling, full curve]. Same read-out and setting: the figure for `c1ccc(-c2[nH]ncc2-c2nc3ccccc3[nH]2)cc1` is 29.1 µM [falling, single point].

Take `CC#CC[N+](C)(C)CCCCCCCCCC`: the AC50 under setting [1] was 4.47 µM [falling, full curve]. On the same count and under the same terms, the result for `COc1ccc(C2C(=O)N(C3CCCCCC3)CC(=O)N2Cc2ccc(C)cc2)cc1OC` (configuration not stated) reads 0.562 µM [rising, full curve, poor fit]. For `CC1CCCC(C)N1C(=O)CSc1nc2ccccc2c(=O)[nH]1` (configuration not stated), the AC50 under setting [1] was 12.6 µM [falling, single point] and the concentration at half-maximal activity (AC50) under setting [2] was 15.8 µM [rising, partial curve, poor fit]. For the molecule `COc1ccccc1C1CCN(Cc2ccc(C)cc2)CC1`, the AC50 under setting [1] was 11.2 µM [rising, partial curve]. As to `CN1C(=O)c2ccccc2Sc2ccc(NC(=O)COc3ccc(F)cc3)cc21`, the AC50 under setting [1] was 8.91 µM [falling, partial curve]. Same read-out and setting: the result for `OC(COc1ccc(Cl)c2ccccc12)CN1CCN(c2ccccn2)CC1` (configuration not stated) reads 17.8 µM [falling, single point]; that for `COCCCNC(=O)C(=O)NC1CCCCC1C` (configuration not stated), 35.5 µM [falling, single point]. As for `Oc1c(-c2cc(-c3ccco3)[nH]n2)ccc2ccccc12`, the AC50 under setting [1] was 10.3 µM [falling, partial curve, poor fit]. As to `CC(=O)N1CCc2c(sc(NC(=O)CN3C(=O)c4ccccc4C3=O)c2C(N)=O)C1`, the AC50 under setting [1] is 0.891 µM [falling, full curve, poor fit]. Turning to `COc1cccc(N/C(N)=N/c2nc(C(F)(F)F)cc(=O)[nH]2)c1`, the half-maximal activity concentration (AC50) under setting [1] is 2.91 µM [falling, full curve]. Turning to `COCCn1c(SCc2csc(-c3ccccc3)n2)nc2ccccc21`, the half-maximal activity concentration (AC50) under setting [1] was 29.1 µM [falling, single point].

Take `COc1cc(OC)cc(C(=O)O/N=C(\N)c2cccc(C)c2)c1`: the AC50 under setting [1] is 20 µM [rising, partial curve, poor fit]. For the molecule `CC(C)C(=O)N=c1sc2cccc(F)c2n1C`, the AC50 under setting [1] is 7.94 µM [rising, partial curve, poor fit]. Regarding `NC(=S)Cc1nc2n(n1)Cc1ccccc1-2`, the half-maximal activity concentration (AC50) runs as follows: under setting [1], 9.2 µM [falling, partial curve]; under setting [2], 2.91 µM [rising, partial curve]. For `Clc1ccccc1-c1nnc2sc(-c3ccc(Br)o3)nn12`, under setting [1], the AC50 was 17.8 µM [falling, partial curve, poor fit].

As to `C=CCn1cccc(C(=O)Nc2ccc(N(C)C)cc2)c1=O`, the AC50 under setting [1] was 35.5 µM [falling, single point]. For the molecule `Clc1ccccc1CN1CCN(c2ncccn2)CC1`, the AC50 under setting [1] was 14.1 µM [rising, single point]. `COc1ccc(C(c2nnnn2C2CCCC2)N2CCc3ccccc3C2)cc1OC` (configuration not stated): under setting [1], the half-maximal activity concentration (AC50) is 12.6 µM [falling, single point]. `N#Cc1c[nH]n2c(=O)c3c(nc12)CCCC3`: under setting [1], the AC50 was 4.47 µM [falling, partial curve, poor fit]. The same measure, in the same setting: the figure for `CN1CCN(S(=O)(=O)c2ccc(NC(=O)C3CCCO3)cc2)CC1` (configuration not stated) is 23.1 µM [rising, single point]; for `CC1CCc2nc(/C(C#N)=C/c3ccncc3)sc2C1` (configuration not stated) it is 10 µM [rising, partial curve]; for `C/C(=N/NC(=O)c1ccoc1C)c1ccc(NC(=O)C2CCCC2)cc1` it is 6.51 µM [falling, partial curve]. Consider `CN(CC(=O)Nc1ccc(Cl)cc1)C(=O)c1cccc(S(=O)(=O)N2CCN(Cc3ccccc3)CC2)c1`, for which the half-maximal activity concentration (AC50) under setting [1] is 29.1 µM [falling, single point]. Turning to `CCOC(=O)c1nn(-c2ccc(Cl)cc2)c(C)cc1=O`, the half-maximal activity concentration (AC50) under setting [1] was 15.8 µM [rising, single point]. Consider `O=C(NN=C1C2CC3CC1CC(Cl)(C3)C2)c1cccs1`, for which the half-maximal activity concentration (AC50) under setting [1] was 35.5 µM [falling, partial curve, poor fit]. In the case of `O=C(CCCOc1ccc(Cl)cc1Cl)Nc1ccc(O)cc1C(=O)O`, the half-maximal activity concentration (AC50) under setting [1] is 0.355 µM [rising, partial curve, poor fit].

Turning to `C=CCOC(=O)C1=C(C)NC(SCC(=O)Nc2nccs2)=C(C#N)C1c1ccc(Cl)cc1` (configuration not stated), the AC50 under setting [1] is 35.5 µM [falling, single point] and the half-maximal activity concentration (AC50) under setting [2] is 12.6 µM [rising, partial curve, poor fit].

For `CSc1ccc(CNc2ccc(Cl)cc2)cc1`, the half-maximal activity concentration (AC50) under setting [1] is 2.51 µM [rising, partial curve, poor fit]. For the molecule `COc1ccc(-c2cn(-c3ccc(C)cc3)c(=O)n2CC(=O)Nc2cccc(F)c2)cc1`, under setting [1], the AC50 was 14.6 µM [rising, partial curve, poor fit].

Regarding `Cc1nc(C)c2c(c1C(F)(F)F)-c1ccccc1C2(F)F`, the half-maximal activity concentration (AC50) under setting [1] is 29.1 µM [falling, partial curve, poor fit]. For the molecule `CN(C)Cc1c(C(=O)Nc2ccccc2)[nH]c2ccccc12`, under setting [1], the AC50 is 16.4 µM [falling, partial curve, poor fit]. With `CCOC(=O)NNC(=O)c1[nH]c2ccc(Br)cc2c1-c1ccccc1`, the AC50 under setting [1] was 25.1 µM [falling, single point]. For `CC12CC3CC(C)(C1)CC(Nc1nc(N4CCOCC4)nc4ccccc14)(C3)C2`, the concentration at half-maximal activity (AC50) under setting [1] was 0.501 µM [rising, full curve, poor fit].

For `COc1ccc(C(=O)NC(NC(=O)c2ccc(OC)c(OC)c2)c2ccccc2F)cc1OC`, the AC50 under setting [1] was 16.4 µM [rising, partial curve, poor fit]. In the case of `CC(=N/O)/C(C)=N\NC(=O)c1ccccn1`, the AC50 under setting [1] was 20 µM [falling, single point]. The same measure, in the same setting: the result for `N#CC1=C(N)SC(N)=C(C#N)C1Cc1ccccc1` reads 17.8 µM [falling, partial curve, poor fit]; that for `CCOC(=O)Cn1c(=N)n(CCOc2ccc3ccccc3c2)c2ccccc21`, 29.1 µM [falling, single point]; that for `COc1cc(NC(=O)CN(C)S(=O)(=O)c2ccc(C)cc2)cc(OC)c1`, 0.00411 µM [rising, full curve, poor fit].

Consider `COc1ccc(NC(=O)Nc2ccc(F)c(F)c2)c(OC)c1`, for which, under setting [1], the half-maximal activity concentration (AC50) is 3.98 µM [rising, partial curve, poor fit]. `CCOC(=O)c1c(C)[nH]c(C(=O)OCC(=O)N(CC(C)C)C2CCS(=O)(=O)C2)c1C` (configuration not stated): the AC50 under setting [1] is 16.4 µM [falling, partial curve, poor fit]. On to `COc1ccc(-c2nn(CC(=O)N(C)C)c(=O)c3ccccc23)cc1`, for which the concentration at half-maximal activity (AC50) under setting [1] is 25.9 µM [rising, single point]. Same read-out and setting: the figure for `Cc1nc2ccccn2c1-c1ccnn1S(=O)(=O)c1ccc(F)cc1` is 35.5 µM [falling, single point]; for `COC(=O)C1=C(C(=O)OC)[C@@H]2Nc3ccccc3[C@@]23C[C@@H](C(=O)OC)N(C(=O)c2ccc(Br)cc2)C3=N1` it is 35.5 µM [rising, partial curve, poor fit]; for `CCCc1cc2c(cc1NS(=O)(=O)c1ccc(CCNC(C)=O)cc1)OCO2` it is 0.708 µM [falling, partial curve]. With `Cc1cc(/C=C2/NC(=O)N(Cc3ccccc3F)C2=O)c(C)n1-c1ccccn1`, under setting [1], the AC50 was 23.1 µM [falling, single point].

Regarding `Cn1c(-c2ccc3c(c2)OCO3)cnc1NCc1ccc(Cl)cc1`, under setting [1], the AC50 was 0.411 µM [rising, partial curve, poor fit]. Regarding `CSc1ccccc1NC(=O)CSc1nnnn1-c1ccccc1SC`, the half-maximal activity concentration (AC50) under setting [1] is 1.16 µM [falling, full curve, poor fit]. Turning to `COc1ccccc1CCN1C(=S)NC(C)(C)CC1(C)O` (configuration not stated), the AC50 under setting [1] is 11.2 µM [falling, partial curve, poor fit]. Still for that read-out and setting: the figure for `O=C(Cn1ncc2c(=O)oc3ccccc3c21)NC1CC1` is 28.2 µM [falling, single point]; for `CCN(C(=O)CN1CCCCCC1)c1c(N)n(Cc2ccccc2)c(=O)[nH]c1=O` it is 29.1 µM [falling, partial curve, poor fit]. Take `O=C(CCc1nnc(-c2ccccc2)o1)c1ccc(Cl)cc1`: under setting [1], the AC50 was 6.31 µM [rising, single point]. In the case of `Cc1cccc(C(=O)NNC(=O)c2ccc(O)cc2)c1`, under setting [1], the AC50 was 10 µM [falling, partial curve].

Regarding `O=c1[nH]c2ccccc2nc1/C=C/c1ccc(Cl)cc1`, the half-maximal activity concentration (AC50) under setting [1] was 0.316 µM [falling, full curve, poor fit]. `O=c1nc(-c2ccccc2)cc(C(F)(F)F)[nH]1`: under setting [1], the concentration at half-maximal activity (AC50) was 3.55 µM [rising, single point]. Regarding `O=C1CC(Sc2ncn[nH]2)C(=O)N1c1ccccc1` (configuration not stated), the AC50 under setting [1] was 23.1 µM [falling, single point]. For `CS(=O)(=O)c1ccc(C(=O)CN2C(=O)NC3(CCCc4ccccc43)C2=O)cc1` (configuration not stated), the concentration at half-maximal activity (AC50) under setting [1] was 6.51 µM [rising, single point]. With `COc1cccc2cc(C(=O)CS(=O)(=O)c3ccc(Cl)cc3)c(=O)oc12`, the AC50 under setting [1] is 35.5 µM [falling, single point]. As to `O=C(CSc1ccc(-c2ccc(Cl)cc2)nn1)N1CCCc2ccccc21`, under setting [1], the AC50 was 23.1 µM [falling, partial curve].

Values taken from PubChem BioAssay AID493014 (National Center for Advancing Translational Sciences (NCATS), 2011).
